Results as given in US9776983B2, “Method for manufacturing fluoropolymers” (SOLVAY SOLEXIS S.p.A., priority 2008, dated 2017).
Some results were stated once for a whole list of compounds, not compound by compound. At least one compound was matched to its structure with a doubt left.

Test: Urine levels and urinary recovery after single oral administration
Type: in vivo, male Wistar rats
Conditions: rats
Protocol: Compound Va and VIIa (Xa═NH4) were administered by single oral route (gavage) three male Wistar (SPF-bred) rats at dose levels of about 70 μmol/kg of dry ammonium salt, corresponding to the 21.2 mg/kg for compound Va and 19.9 mg/kg for compound VIIa. Blood sampling occurred 15 minutes before administration, at 4, 8, 12, 24, 72 and 168 hours after administration.
Compound XIII was dosed by single oral administration to 3 male Wistar rats at the dose of 73 umol/kg corresponding to 26.06 mg/kg. Blood sampling occurred at 15 minutes before administration, at 4, 8, 12, 24, 72 and 168 hours after administration. Urine samples were obtained at time intervals 0-12, 12-24, 24-72, 72-96, 96-168 hours after dosing. Plasma and urine concentration of XIII were determined by a validated analytical method.

Compound | recoveries from urines after 96 and 168 hours from treatment [%]
N.O=C(O)C(F)(F)OC1(F)OC(F)(F)OC1(F)OC(F)(F)F (centres unmarked) [Compound XIII] | > 80
N.O=C(O)C1(F)OC(F)(F)OC1OC(F)(F)F (centres unmarked) [Compound VIIa] | > 80
